Measured values reported in PubChem BioAssay AID540276 (National Center for Advancing Translational Sciences (NCATS), 2011).
Hit rate of the full screen: of about 300,000 compounds, about 5,400 (1.8%) were called active. Inconclusive results, whose numbers are uncertain, are shown with a selection of clear calls. The call rests on the fitted dose curve; tested in HEK293 cells. Potencies of inconclusive entries are doubtful fits and often do not repeat.

Assay: qHTS for inhibitors of binding or entry into cells for Marburg Virus
Conditions: Marburg virus pseudotyped entry inhibition, cell reporter; activity change, negative = inhibition: at 37.8 µM (top of the series) unless noted
On the % scale 0 is the no-effect control and ±100 the full control effect; potency means the concentration at half of the fitted maximal effect.

Compound	activity change, negative = inhibition	Potency
CCCCOc1ccc(C(=O)NCC(=O)N2CCN(Cc3ccc4c(c3)OCO4)CC2)cc1	inactive: -20.5%	
O=C(Nc1ccc(Cl)cc1)Nc1cnccn1	inactive: 9.88%	
O=C(Nc1cc(C(F)(F)F)cc(C(F)(F)F)c1)c1ccc(Cn2cc(C(F)(F)F)ccc2=O)cc1		inconclusive: 10.3 µM [inhibitor, partial curve, poor fit]
CCOC(=O)c1c(NC(=O)c2c(-c3ccccc3)noc2C)sc(C)c1-c1ccccc1		active: 0.126 µM
Cc1cccc(C)c1NC(=O)c1ccc(-c2ccc(Cl)cc2Cl)o1		active: 10 µM
CCCCn1c(SCC(=O)NCc2ccccc2)nc2ccc(N3CCOCC3)cc2c1=O		inconclusive: 25.9 µM [inhibitor, partial curve, poor fit]
Cc1cccc(NC(=O)CSc2nccn2Cc2ccco2)c1C	inactive: 9.92% [at 46.1 µM]	
CCCCc1ccc(NC(=O)c2ccc3c(c2)CCN3S(=O)(=O)c2ccccc2)cc1		inconclusive: 17.8 µM [inhibitor, single point]
Cc1ccc(C)c(OC(=O)CSc2nnc(-c3ccc4c(c3)OCO4)o2)c1	inactive: 2.05% [at 46.1 µM]	
N#Cc1c2n(c(=O)[nH]c1=O)CCCCC2		inconclusive: 11.2 µM [activator, partial curve, poor fit]
C=COC[C@@H]1CN2[C@H](c3ccc(Br)cc3)[C@H](C)CC[C@H]2C(=O)O1		inconclusive: 0.0841 µM [activator, full curve, poor fit]
N#Cc1ccc(-c2cccnc2)nc1SCC(=O)c1ccccc1		inconclusive: 11.2 µM [inhibitor, single point]
CC(C)CNC(=O)C(=O)NCC1OCCCN1S(=O)(=O)c1ccc2c(c1)OCCO2 (stereo not drawn)		inconclusive: 20 µM [activator, single point]
O=[N+]([O-])c1cnc2nc(-c3ccncc3)nn2c1O		inconclusive: 7.94 µM [inhibitor, partial curve]
COc1ccc(-n2c(NN)nc3sc4c(c3c2=O)CCCC4)cc1		inconclusive: 35.5 µM [inhibitor, single point]
Cc1ccc(NC(=O)c2c(C(F)(F)F)nn(C)c2SCc2cccc(C(F)(F)F)c2)cc1C		inconclusive: 29.1 µM [inhibitor, single point]
O=C(Oc1ccc(-c2cnc3ccccc3n2)cc1)c1ccco1		inconclusive: 0.82 µM [inhibitor, full curve, poor fit]
COc1ccc(CCC(=O)Nc2nc3c(s2)CN(C)CC3)cc1OC	inactive: -8.11%	
CCOC(=O)c1cnc2ccc(OCC)cc2c1Nc1cc(Cl)c(OC)cc1OC	inactive: 4.79% [at 46.1 µM]	
Clc1ccc2[nH]cc(-c3nnnn3-c3ccccc3)c2c1		inconclusive: 15.8 µM [inhibitor, single point]
C#CCN1C(=O)CC[C@@]23C1=NC(C(=O)OC)=C(C(=O)OC)[C@@H]2N(Cc1ccccc1)c1ccccc13	inactive: -20.3% [at 14.2 µM]	
CC(C)Cn1cc(C(=O)N2CCN(c3cccc(Cl)c3)CC2)c2c3ccccc3n(C)c2c1=O		inconclusive: 11.2 µM [inhibitor, partial curve, poor fit]
CCOc1ccc2c(c1)cc(CN(C(=O)CC)C1CCCCC1)c1nnnn12		inconclusive: 32.6 µM [inhibitor, single point]

Compound	activity change, negative = inhibition	Potency
O=C(CSc1nnc(CNC(=O)c2c(F)cccc2Cl)o1)Nc1ccccc1		inconclusive: 14.1 µM [inhibitor, partial curve, poor fit]
CCCC12CN3CC(CCC)(CN(C1)C3c1ccco1)C2=O (stereo not drawn)	inactive: -0.763% [at 46.1 µM]	
COCCNC(=O)C(OC(=O)c1cc2oc(C)cc2n1C)C(C)C (stereo not drawn)	inactive: 0.713%	
CCC(C)Sc1cc(C(F)(F)F)c(C(=O)Nc2ccc(Cl)cc2)cn1 (stereo not drawn)		inconclusive: 10 µM [inhibitor, partial curve, poor fit]
Cc1nc(SCc2ccc(Cl)cc2)c(C#N)c(C)c1Cl	inactive: 5.72% [at 46.1 µM]	
COc1ccc(OC2C(=O)N(Cc3ccc(F)cc3)C2c2cc(OC)c(OC)c(OC)c2)cc1 (stereo not drawn)		inconclusive: 0.316 µM [activator, partial curve, poor fit]
CC(C)(C)NC(=O)C(c1ccco1)N(C(=O)c1ccc(CN2CCOCC2)o1)c1ccccc1 (stereo not drawn)		inconclusive: 1.12 µM [activator, full curve, poor fit]
CC(C)Cn1c(CN2C(=O)c3ccccc3C2=O)nc2ccccc2c1=O		inconclusive: 35.5 µM [activator, partial curve, poor fit]
Cc1ccc(C)c(N2CCN(CCCNC(=O)c3nnc(Cc4ccc(F)cc4Cl)o3)CC2)c1		inconclusive: 22.4 µM [inhibitor, single point]
CC(=O)c1ccc(S(=O)(=O)N(Cc2cc3cc4c(cc3[nH]c2=O)OCCO4)CC2CCCO2)cc1 (stereo not drawn)	inactive: -11.9%	
CN(C)Cc1c(O)ccc2oc(Cc3ccccc3)cc12		inconclusive: 28.2 µM [inhibitor, single point]
CC(=O)c1cc(CN2CCCCC2)cc(OC(C)C)c1		inactive
C#CCN1C(=O)C(O)(CC(=O)c2cccc(OC)c2)c2ccccc21 (stereo not drawn)		inconclusive: 6.51 µM [activator, single point]
COc1ccc(Cl)cc1N1C(=O)[C@@H]2C(c3cccc(OC)c3OC)=NO[C@@H]2C1=O		inconclusive: 14.1 µM [activator, partial curve, poor fit]
O=C(N/N=C1/C[C@@H](O)[C@@H](O)[C@@H]2[C@@H]3C(=O)N(C4CCCCC4)C(=O)[C@H]3CC[C@H]12)OCc1ccccc1		inconclusive: 0.0841 µM [inhibitor, full curve, poor fit]
COc1ccc(N2CCN(C(=O)CSc3nnc4c(C)cc5c(C)cc(C)cc5n34)CC2)cc1		inconclusive: 23.1 µM [inhibitor, single point]
Cc1ccc(-c2nnc(SCC(=O)NC3CC3)o2)cc1		inconclusive: 4.47 µM [activator, single point]
CCC1=C(c2ccc(C)cc2)S(=O)(=O)N=C1N1CCC(C(=O)NCc2ccccc2Cl)CC1		inconclusive: 1 µM [inhibitor, full curve, poor fit]
C=C(C)c1cccc(C(C)(C)NC(=O)Nc2cc(C)ccn2)c1		inconclusive: 35.5 µM [inhibitor, single point]
Clc1ccccc1N=C1NN=C(c2cccs2)CS1		inconclusive: 35.5 µM [inhibitor, single point]
O=C1C2C3c4ccccc4C(Br)(c4ccccc43)C2C(=O)N1c1ccccc1O (stereo not drawn)		inconclusive: 0.316 µM [activator, partial curve, poor fit]
Nc1n[nH]c(-c2ccccc2)n1		inactive
COc1ccc(CN(Cc2cccnc2)S(=O)(=O)c2ccc(-n3cnnn3)c(C)c2)cc1OC		inconclusive: 3.26 µM [inhibitor, full curve]

Compound	activity change, negative = inhibition	Potency
COC(=O)C(C)N(C#N)c1nc(C)cc(C)n1 (stereo not drawn)		inconclusive: 3.98 µM [activator, full curve, poor fit]
CCOc1cc(CNCCCN2CCOCC2)cc(Cl)c1OCC(=O)NC(C)(C)C		inconclusive: 8.91 µM [inhibitor, partial curve, poor fit]
NC(=O)CNC(=O)[C@@H]1CC2(CC(c3cccc(Br)c3)=NO2)CN1C(=O)c1ccc(Br)cc1 (stereo partly drawn)	inactive: 5.23%	
Cc1ccc(NC(=O)CCNS(=O)(=O)c2ccc(Br)cc2)cc1S(=O)(=O)N1CCOCC1		inconclusive: 35.5 µM [inhibitor, single point]
O=C(COC(=O)COc1cccc(C(F)(F)F)c1)NC(=O)NC1CCCCC1	inactive: 2.79%	
COc1ccc(N2C(N)=NC(N)=NC2(C)C)cc1		inconclusive: 22.4 µM [inhibitor, single point]
COc1ccc(-c2csc3nc(-c4ccccc4F)oc(=O)c23)cc1OC		inconclusive: 29.1 µM [inhibitor, single point]
CCCOc1ccc(NC(=O)C2CC(=O)N/C(=N/N=C(C)/C=C/c3ccc(N(C)C)cc3)S2)cc1 (stereo not drawn)	inactive: -1.69%	
O=C(Nc1cccc(C(=O)O)c1)/C(=C\c1ccc(F)cc1)NC(=O)c1ccco1	inactive: -0.229% [at 46.1 µM]	
NCCNC(=O)c1c(O)c2cccc3c2n(c1=O)CCC3		active: 10 µM
Cc1cc(C)c(NC(=S)N(Cc2cccnc2)Cc2ccco2)c(C)c1	inactive: -8.84%	
CCc1cc2c(-c3ccccc3)cc(=O)oc2cc1OC(=O)c1cccs1	inactive: -7.39%	
Clc1ccc2[nH]c3c(c2c1)CNCC3		inconclusive: 35.5 µM [inhibitor, single point]
COc1ccc(C/C(O)=C(\C#N)c2nc3ccccc3s2)cc1	inactive: -7.86%	
Cc1ccc(C(=O)NC(=S)Nc2ccc(N3CCOCC3)cc2)c(C)c1		inconclusive: 2.24 µM [inhibitor, full curve, poor fit]
CCC1CN1P(=S)(N1CC1CC)N1CC1CC (stereo not drawn)		inconclusive: 1.26 µM [inhibitor, single point]
COc1ccc(OC)c(C2C(C#N)=C(N)Oc3c2c(C)nn3-c2ccc(C)cc2)c1 (stereo not drawn)		inactive
O=C(NCc1ccc(N2CCCC2=O)cc1)NC1CCCCC1	inactive: -13.2%	
CCCCC1=CC2=CC(=O)C(C)(OC(=O)c3cnc4ccccc4n3)C(=O)C2=CO1 (stereo not drawn)		inactive
CN=c1sc(C(=O)Nc2ccccc2)c(C)n1C		inconclusive: 4.47 µM [activator, single point]
COc1ccc(-c2nc(NC(=O)C3CCN(c4nc5ccccc5o4)CC3)sc2C)cc1		inconclusive: 23.1 µM [inhibitor, single point]
COc1cccc(-n2c(=O)c3c(C)c(C(=O)N(C)C)sc3n(CC(=O)NCC3CCCO3)c2=O)c1 (stereo not drawn)	inactive: -10.8% [at 46.1 µM]	

Reformatted in markdown: part of the list above

| Compound | activity change, negative = inhibition | Potency |
| --- | --- | --- |
| CC(C)(C)NC(=O)C(c1ccco1)N(C(=O)c1ccc(CN2CCOCC2)o1)c1ccccc1 (stereo not drawn) |  | inconclusive: 1.12 µM [activator, full curve, poor fit] |
| CC(C)Cn1c(CN2C(=O)c3ccccc3C2=O)nc2ccccc2c1=O |  | inconclusive: 35.5 µM [activator, partial curve, poor fit] |
| Cc1ccc(C)c(N2CCN(CCCNC(=O)c3nnc(Cc4ccc(F)cc4Cl)o3)CC2)c1 |  | inconclusive: 22.4 µM [inhibitor, single point] |
| CC(=O)c1ccc(S(=O)(=O)N(Cc2cc3cc4c(cc3[nH]c2=O)OCCO4)CC2CCCO2)cc1 (stereo not drawn) | inactive: -11.9% |  |
| CN(C)Cc1c(O)ccc2oc(Cc3ccccc3)cc12 |  | inconclusive: 28.2 µM [inhibitor, single point] |
| CC(=O)c1cc(CN2CCCCC2)cc(OC(C)C)c1 |  | inactive |
| C#CCN1C(=O)C(O)(CC(=O)c2cccc(OC)c2)c2ccccc21 (stereo not drawn) |  | inconclusive: 6.51 µM [activator, single point] |
| COc1ccc(Cl)cc1N1C(=O)[C@@H]2C(c3cccc(OC)c3OC)=NO[C@@H]2C1=O |  | inconclusive: 14.1 µM [activator, partial curve, poor fit] |
| O=C(N/N=C1/C[C@@H](O)[C@@H](O)[C@@H]2[C@@H]3C(=O)N(C4CCCCC4)C(=O)[C@H]3CC[C@H]12)OCc1ccccc1 |  | inconclusive: 0.0841 µM [inhibitor, full curve, poor fit] |
| COc1ccc(N2CCN(C(=O)CSc3nnc4c(C)cc5c(C)cc(C)cc5n34)CC2)cc1 |  | inconclusive: 23.1 µM [inhibitor, single point] |
| Cc1ccc(-c2nnc(SCC(=O)NC3CC3)o2)cc1 |  | inconclusive: 4.47 µM [activator, single point] |
| CCC1=C(c2ccc(C)cc2)S(=O)(=O)N=C1N1CCC(C(=O)NCc2ccccc2Cl)CC1 |  | inconclusive: 1 µM [inhibitor, full curve, poor fit] |
| C=C(C)c1cccc(C(C)(C)NC(=O)Nc2cc(C)ccn2)c1 |  | inconclusive: 35.5 µM [inhibitor, single point] |
| Clc1ccccc1N=C1NN=C(c2cccs2)CS1 |  | inconclusive: 35.5 µM [inhibitor, single point] |
| O=C1C2C3c4ccccc4C(Br)(c4ccccc43)C2C(=O)N1c1ccccc1O (stereo not drawn) |  | inconclusive: 0.316 µM [activator, partial curve, poor fit] |
| Nc1n[nH]c(-c2ccccc2)n1 |  | inactive |
| COc1ccc(CN(Cc2cccnc2)S(=O)(=O)c2ccc(-n3cnnn3)c(C)c2)cc1OC |  | inconclusive: 3.26 µM [inhibitor, full curve] |
| COC(=O)C(C)N(C#N)c1nc(C)cc(C)n1 (stereo not drawn) |  | inconclusive: 3.98 µM [activator, full curve, poor fit] |
| CCOc1cc(CNCCCN2CCOCC2)cc(Cl)c1OCC(=O)NC(C)(C)C |  | inconclusive: 8.91 µM [inhibitor, partial curve, poor fit] |
